# Results: PubChem BioAssay AID445 (National Center for Advancing Translational Sciences (NCATS), 2006)
# The list shows a part of the results. The main result of the screen is listed elsewhere. These columns were measured beside it and carry no call. The list favours compounds with an active or inconclusive main result. Words in brackets tell the shape of the fitted curve; partial curves, single points and poor fits give uncertain potencies.
# Assay: IkB Signaling
# Conditions: ABC-DLBCL IkBa-CBG/CBR dual luciferase ratio (green luciferase fused to IkBa over red control in OCI-Ly3 lymphoma cells), 4 h
# In short: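 In this assay, an IκBα–CBG68 fusion accumulates when IKK-driven degradation is blocked; native CBR normalizes for cell number. OCI-Ly3 cells were treated 4 h with compound and doxycycline, then green and red light read after Chroma-Glo addition.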
# [1] = measured here: control luc red channel unless noted
# [2] = measured here: IkB-luc green channel
# [3] = measured here: control luc red channel
smiles,measurement,setting,value
O=C(O)[C@@H]1CSC2(CCSC2)N1 (some centres undefined),AC50,[1],"12.6 µM [falling, partial curve]"
C=CCN=C(NC#N)SCC(=O)c1cccc(OC)c1,AC50,[1],"15.8 µM [falling, partial curve]"
CN(C)/C=C/C(=O)c1nnn(C2CCCCC2)c1NC1CCCCC1,AC50,[1],"10 µM [falling, partial curve]"
Cc1ccc(CNC(=O)c2cc(=O)c3cc(C)c(C)cc3o2)cc1,AC50,[1],"7.94 µM [rising, single point]"
CC1CCCCN1Cc1c(O)ccc2c(=O)c(-c3ccc(Cl)cc3)coc12 (centres undefined),AC50,[1],"0.501 µM [rising, full curve, poor fit]"
COc1ccc(CNC(=O)C2CCCN(C(=O)c3cnn(-c4ccc(F)cc4)c3-n3cccc3)C2)cc1 (centres undefined),AC50,[1],"12.6 µM [falling, partial curve]"
CCOc1ccc(CC(=O)NCCc2sc(-c3cccc(F)c3)nc2C)cc1,AC50,[1],"20 µM [falling, single point]"
CCOc1cccc2sc(NC(=O)c3ccc(S(=O)(=O)N4CCCCC4)cc3)nc12,AC50,[1],"7.94 µM [falling, partial curve]"
Cc1nn(-c2ccccn2)c2c1C(c1ccsc1)C1=C(CCCC1=O)N2 (centres undefined),AC50,[1],"20 µM [falling, single point]"
CC1CCN(S(=O)(=O)c2ccc3c(ccc(=O)n3CC(=O)NCc3ccccc3)c2)CC1,AC50,[1],"0.158 µM [falling, full curve, poor fit]"
Cc1ccc(CCNC(=O)c2oc(=O)c3ccccc3c2-c2ccc(C)cc2)cc1,AC50,[1],"7.94 µM [falling, partial curve]"
CCc1ccc2oc(C(=O)NCC(c3ccc(Cl)cc3)N3CCOCC3)c(C)c2c1 (centres undefined),AC50,[1],"20 µM [falling, partial curve]"
COc1cc2cc(C(c3nnnn3C3CCCCC3)N(C)C3CCCCC3)c(=O)[nH]c2cc1OC (centres undefined),AC50,[1],"25.1 µM [falling, single point]"
Cc1ccc(-n2ncc3c(N4CCCCC4)ncnc32)cc1Cl,AC50,[1],"1.26 µM [falling, partial curve]"
COc1cccc(NC(=O)c2nnn(CCc3ccccc3)c2N)c1,AC50,[1],"10 µM [falling, partial curve]"
Cc1ccc(NCc2nnc(SCc3ccc(C#N)cc3)n2Cc2ccco2)c(C)c1,AC50,[1],"25.1 µM [falling, partial curve]"
CC(=O)Nc1ccc(NC(=O)CCc2c(C)nc3c(c(C)nn3-c3ccc(C)cc3)c2C)cc1,AC50,[1],"10 µM [falling, partial curve]"
CC(=O)Nc1ccccc1-c1nc2ccccc2n(C(C)C(=O)Nc2cc(Cl)ccc2C)c1=O (centres undefined),AC50,[1],"3.16 µM [rising, partial curve]"
CCN(CC)S(=O)(=O)c1nnc(NC(=O)COc2ccc(C)cc2)s1,AC50,[1],"0.501 µM [rising, full curve, poor fit]"
Cc1ccc(C)c(NC(=O)CSc2nnc(CNC(=O)c3ccccc3)n2-c2ccccc2)c1,AC50,[1],"15.8 µM [falling, partial curve]"
O=C(Nc1ccccc1Cl)c1ccc(F)c(S(=O)(=O)NCc2ccc(Cl)c(Cl)c2)c1,AC50,[1],"25.1 µM [falling, partial curve]"
COc1ccc(CN2CCCN(CC(=O)Nc3cc(C)ccc3C)S2(=O)=O)cc1,AC50,[1],"12.6 µM [falling, partial curve, poor fit]"
O=C(O)CCC(=O)c1ccc2ccc3cccc4ccc1c2c34,AC50,[1],"0.631 µM [falling, full curve]"
CCOC(=O)Cn1c(C2CC(=O)N(c3ccc(C)cc3)C2)nc2ccccc21 (centres undefined),AC50,[1],"25.1 µM [falling, partial curve]"
O=C(c1ccncc1)c1ccc(N2CCN(C3CC(=O)N(Cc4ccccc4)C3=O)CC2)cc1 (centres undefined),AC50,[2],"2 µM [falling, partial curve]"
same,AC50,[3],"10 µM [falling, partial curve]"
CC1=C(C(=O)OC2CCCC2)C(c2ccc(C)o2)C2=C(CC(c3cccs3)CC2=O)N1 (centres undefined),AC50,[1],"5.01 µM [falling, partial curve]"
Cc1cc(C)c(-c2cc(C(=O)Nc3c(C)n(C)n(-c4ccccc4)c3=O)[nH]n2)c(O)c1,AC50,[1],"12.6 µM [falling, partial curve]"
CCc1ccc(C2=CC(c3cccc(C)c3)n3c(nc4ccccc43)N2)cc1 (centres undefined),AC50,[1],"0.794 µM [falling, partial curve]"
Cc1cccc(N(CC(=O)NCc2ccccc2)S(C)(=O)=O)c1C,AC50,[1],"2 µM [falling, partial curve, poor fit]"
Cc1ccc(C)c(NC(=O)Cn2cnc3c(oc4ccccc43)c2=O)c1,AC50,[1],"25.1 µM [falling, single point]"
Cc1cc(C)cc(-n2nnnc2SCC(=O)Nc2cccc(NC(=O)c3ccco3)c2)c1,AC50,[1],"15.8 µM [falling, partial curve]"
COc1ccc(CNC(=O)CSCc2nc(-c3ccccc3F)oc2C)cc1,AC50,[1],"15.8 µM [falling, partial curve]"
COc1ccccc1-c1cc(C(=O)N2CCN(c3ccccc3)CC2)no1,AC50,[1],"0.631 µM [falling, full curve]"
c1coc(CN(Cc2cccs2)Cc2nnnn2C2CCCCC2)c1,AC50,[1],"39.8 µM [falling, single point]"
CCOc1ccc2nc(NC(=O)C3CCCN(S(=O)(=O)c4cccs4)C3)sc2c1 (centres undefined),AC50,[1],"31.6 µM [falling, single point]"
COc1ccc(NC(=O)C(c2ccccc2)N2Cc3ccccc3C2=O)cc1 (centres undefined),AC50,[1],"3.98 µM [rising, partial curve]"
Cc1cc(C)c2c(=O)cc(C(=O)Nc3ccc(C)c(Cl)c3)oc2c1,AC50,[1],"2.51 µM [rising, partial curve]"
COc1cc(OC)c(NC(=O)NCCn2nnc3cc(S(=O)(=O)N(C)C)ccc32)cc1Cl,AC50,[1],"10 µM [falling, partial curve]"
CCOc1ccc(CCNC(=O)C(CC)n2nc(C)c3c(C)n(-c4ccccc4)nc3c2=O)cc1 (centres undefined),AC50,[1],"20 µM [falling, partial curve]"
CCCCSCCCNC(=O)C1CCN(Cc2nc(-c3ccc(CC)cc3)oc2C)CC1,AC50,[1],"25.1 µM [falling, partial curve]"
Cc1cc(-c2ccc(S(=O)(=O)Nc3cccc(C)c3C)s2)on1,AC50,[1],"10 µM [rising, partial curve]"
CCOC(=O)c1c(C)[nH]c(C)c1S(=O)(=O)N1CCC(C(=O)NCc2ccc(F)cc2)CC1,AC50,[2],"5.01 µM [rising, single point]"
same,AC50,[3],"0.0794 µM [rising, full curve]"
COc1ccc(-c2c(C#N)c(SCC(=O)Nc3ccc(C)c(C)c3)nc(C)c2C(=O)Nc2ccc(Cl)cc2)cc1,AC50,[1],"10 µM [falling, partial curve]"
c1ccc(/C(=N/Nc2nc3ccccc3s2)c2ccccn2)cc1,AC50,[1],"0.0316 µM [falling, full curve]"
O=C(CSc1nnc(-c2ccccc2Br)n1-c1ccccc1)c1ccc(F)cc1,AC50,[1],"25.1 µM [falling, single point]"
CC(C)Cn1c(N)c(C(=O)NCC2CCCO2)c2nc3ccccc3nc21 (centres undefined),AC50,[1],"15.8 µM [falling, partial curve]"
O=c1[nH]c(SCc2ccccc2)nc2c1CCCC2,AC50,[1],"1 µM [rising, full curve, poor fit]"
CC(C)(C)C1CCc2nc(NC(=O)c3cccc(Cl)c3)sc2C1 (centres undefined),AC50,[1],"1.26 µM [rising, partial curve]"
Cn1nnnc1SCCCNCc1cc(Br)ccc1OCc1ccccc1,AC50,[1],"12.6 µM [falling, partial curve]"
Cc1nc2sccn2c(=O)c1S(=O)(=O)Nc1ccc(N2CCN(C)CC2)cc1,AC50,[1],"25.1 µM [falling, single point]"
N#CC1=C(N)S[C@H](C(=O)C23CC4CC(CC(C4)C2)C3)[C@H]1c1ccncc1,AC50,[1],"25.1 µM [falling, partial curve]"
CCCc1cnc2c(c1SCc1cccc(C)c1)c(=O)n(C)c(=O)n2C,AC50,[1],"6.31 µM [falling, single point]"
COc1cc(OC)c(NC(=O)c2sc3nc4n(c(=O)c3c2C)CCCC4)cc1Cl,AC50,[1],"12.6 µM [falling, partial curve]"
CCN(CC)S(=O)(=O)c1ccc2nc(NC(=O)c3cccs3)sc2c1,AC50,[1],"12.6 µM [falling, partial curve]"
COc1ccc(S(=O)(=O)NCCc2sc(C)nc2C)cc1,AC50,[1],"0.00631 µM [rising, full curve, poor fit]"
COc1ccc(-n2c(-c3ccccc3F)nc3c(cnn3-c3ccc(C)cc3)c2=O)cc1,AC50,[1],"5.01 µM [falling, partial curve]"
Cc1ccc(CCNC(=O)CN2C(=O)COc3ccc(S(=O)(=O)N4CCCC4)cc32)cc1,AC50,[1],"0.0501 µM [falling, full curve, poor fit]"
CCCCC(=O)N1CC(=O)Nc2ccc(F)cc2C1c1ccc(F)cc1 (centres undefined),AC50,[1],"2 µM [falling, full curve, poor fit]"
CCn1c(CNC(=O)C23CC4CC(CC(C4)C2)C3)nnc1SCC(=O)Nc1ccc(C)cc1,AC50,[1],"25.1 µM [falling, single point]"
CC(C)(C)n1nnnc1C(c1cc2cc3c(cc2[nH]c1=O)OCO3)N1CCN(c2ccccc2)CC1 (centres undefined),AC50,[1],"12.6 µM [falling, partial curve]"
O=C1CC(SCc2nc3ccccc3[nH]2)C(=O)N1c1ccc(F)cc1 (centres undefined),AC50,[1],"6.31 µM [falling, partial curve]"
Cc1ccc2c(Sc3ccccc3)c(C(=O)NCc3ccccc3F)[nH]c2c1,AC50,[1],"0.00794 µM [rising, full curve]"

# Quoted from the entries so far (4 entries):
smiles,measurement,setting,value
Cc1cc(C)c(-c2cc(C(=O)Nc3c(C)n(C)n(-c4ccccc4)c3=O)[nH]n2)c(O)c1,AC50,[1],"12.6 µM [falling, partial curve]"
CCc1ccc(C2=CC(c3cccc(C)c3)n3c(nc4ccccc43)N2)cc1 (centres undefined),AC50,[1],"0.794 µM [falling, partial curve]"
Cc1cccc(N(CC(=O)NCc2ccccc2)S(C)(=O)=O)c1C,AC50,[1],"2 µM [falling, partial curve, poor fit]"
Cc1ccc(C)c(NC(=O)Cn2cnc3c(oc4ccccc43)c2=O)c1,AC50,[1],"25.1 µM [falling, single point]"

# Reformatted: results already given.
smiles	measurement	setting	value
CC(=O)Nc1ccccc1-c1nc2ccccc2n(C(C)C(=O)Nc2cc(Cl)ccc2C)c1=O (centres undefined)	AC50	[1]	3.16 µM [rising, partial curve]
COc1cc(OC)c(NC(=O)c2sc3nc4n(c(=O)c3c2C)CCCC4)cc1Cl	AC50	[1]	12.6 µM [falling, partial curve]
